For 1 substance, binding results are on record in article PMC10622843.

Amino acid sequences for entries named in this document (tags omitted). A change or cut given only in a name is not applied to a line headed by its entry.
UniProt Q9NQC3: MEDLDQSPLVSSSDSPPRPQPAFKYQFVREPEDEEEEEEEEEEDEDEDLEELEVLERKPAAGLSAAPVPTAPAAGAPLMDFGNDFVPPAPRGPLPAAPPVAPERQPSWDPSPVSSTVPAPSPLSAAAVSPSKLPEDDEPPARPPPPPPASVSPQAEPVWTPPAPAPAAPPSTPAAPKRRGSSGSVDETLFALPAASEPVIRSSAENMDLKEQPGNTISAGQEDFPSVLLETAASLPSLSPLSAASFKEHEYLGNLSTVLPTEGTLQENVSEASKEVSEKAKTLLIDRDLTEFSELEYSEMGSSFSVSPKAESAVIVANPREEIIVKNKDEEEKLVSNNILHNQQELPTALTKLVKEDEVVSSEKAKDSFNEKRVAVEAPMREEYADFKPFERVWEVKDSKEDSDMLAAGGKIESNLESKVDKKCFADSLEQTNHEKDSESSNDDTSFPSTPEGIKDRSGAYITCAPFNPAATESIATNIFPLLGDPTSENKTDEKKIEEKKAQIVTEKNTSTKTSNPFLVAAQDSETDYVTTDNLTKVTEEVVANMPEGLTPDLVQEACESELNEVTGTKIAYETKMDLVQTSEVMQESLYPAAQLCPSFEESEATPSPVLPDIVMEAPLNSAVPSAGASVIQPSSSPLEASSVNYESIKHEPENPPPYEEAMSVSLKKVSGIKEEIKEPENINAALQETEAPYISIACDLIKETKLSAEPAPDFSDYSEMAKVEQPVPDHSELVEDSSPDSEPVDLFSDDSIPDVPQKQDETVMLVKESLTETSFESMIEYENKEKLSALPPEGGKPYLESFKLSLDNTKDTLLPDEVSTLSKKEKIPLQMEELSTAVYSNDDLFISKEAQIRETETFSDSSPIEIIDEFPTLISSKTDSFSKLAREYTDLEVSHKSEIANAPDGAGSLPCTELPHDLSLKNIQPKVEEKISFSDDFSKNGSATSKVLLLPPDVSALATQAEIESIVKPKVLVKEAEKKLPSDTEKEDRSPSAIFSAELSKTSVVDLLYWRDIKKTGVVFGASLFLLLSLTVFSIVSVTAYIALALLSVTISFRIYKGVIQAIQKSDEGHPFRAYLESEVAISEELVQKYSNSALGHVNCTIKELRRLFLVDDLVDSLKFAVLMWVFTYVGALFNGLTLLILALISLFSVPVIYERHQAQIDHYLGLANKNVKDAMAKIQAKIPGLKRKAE
UniProt P11142: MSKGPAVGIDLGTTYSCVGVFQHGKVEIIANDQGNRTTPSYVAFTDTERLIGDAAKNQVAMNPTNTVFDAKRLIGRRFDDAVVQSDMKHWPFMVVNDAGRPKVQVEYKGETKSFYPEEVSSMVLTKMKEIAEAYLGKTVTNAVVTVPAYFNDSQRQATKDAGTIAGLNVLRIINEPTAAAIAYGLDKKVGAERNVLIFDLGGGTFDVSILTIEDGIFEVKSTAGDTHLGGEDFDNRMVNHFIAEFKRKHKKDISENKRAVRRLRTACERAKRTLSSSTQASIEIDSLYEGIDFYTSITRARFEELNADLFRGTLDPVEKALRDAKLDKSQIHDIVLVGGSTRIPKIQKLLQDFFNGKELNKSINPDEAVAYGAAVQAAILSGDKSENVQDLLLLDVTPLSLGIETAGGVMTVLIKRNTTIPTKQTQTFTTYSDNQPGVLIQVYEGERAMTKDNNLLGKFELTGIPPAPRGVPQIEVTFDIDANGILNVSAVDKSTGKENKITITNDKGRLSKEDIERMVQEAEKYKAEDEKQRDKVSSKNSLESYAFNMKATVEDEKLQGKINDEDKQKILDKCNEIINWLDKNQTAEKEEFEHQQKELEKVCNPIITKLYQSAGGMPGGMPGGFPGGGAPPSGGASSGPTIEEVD

These are yes or no findings as the source states them, for the method shown. In cells and extracts the contact can be indirect. Some binding calls cover weakened binding; strength is not graded here.

Experiment [1] addresses FLAG-tagged NogoA G214A-N215A mutant (human) (UniProt Q9NQC3). The experiment in a line: co-IP; anti-FLAG immunoprecipitation from lysate of HEK293T cells 36 h after transfection; immunoblot with anti-HSPA8 and anti-FLAG. For orientation: In western blotting, separated proteins are transferred to a membrane and probed.
The target of experiment [2] is FLAG-tagged NogoA WT (human) (UniProt Q9NQC3). The experiment is described as above.

Regarding “HSPA8, endogenous in HEK293T cells (from UniProt P11142 1-646)”, the binding result in experiment [1] was “no binding”; in experiment [2], “binds”.
